Source: PubChem BioAssay AID330 (DTP/NCI, 2004)
The list shows only some results of the screen, not a fair sample: it is rich in T/C values a quarter to a half above the control, in often repeated tests (any T/C) and in doses without a T/C. Other doses and runs of a compound stand elsewhere. T/C is the treated group as % of the vehicle group. Some doses have a count of surviving animals in place of a T/C: the source files T/C as zero there, which appears to mark a toxic dose or a test without result, not a measured value. Some survivor counts are full or nearly so, which does not show that the dose was tolerated: survival well below the control is almost never listed, so the zero probably covers shortened survival too. Counts of survivors are from the toxicity check (mostly the fifth day) where no day follows; animals may have died later. Schedule codes are those of the source, read here as Q, the interval in days (D) or hours (H), X, the number of doses. Some doses were run more than once; their values stand side by side, smallest first. For survival time, the PubChem record calls one and a half times the control and up active, and a quarter to a half above the control has no call in these data; cut-offs in other NCI protocols can differ. Some T/C values are followed by the survivors on the day toxicity was checked, most often the fifth; without a count, all were alive then.

System: P388 leukemia ip, CD2F1 mice, survival T/C
Test: NCI In Vivo Anticancer Drug Screen. Data for tumor model P388 Leukemia (intraperitoneal) in CD2F1 (CDF1) mice
Details: T/C endpoint: median survival time, higher T/C = longer survival
[1] = dose: 120.0 mg/kg/injection, schedule: Q01DX005 (ip), vehicle: saline with Tween-80
[2] = dose: 240.0 mg/kg/injection, schedule: Q01DX005 (ip), vehicle: saline with Tween-80
[3] = dose: 400.0 mg/kg/injection, schedule: Q04DX002 (ip), vehicle: saline with Tween-80

With `Cn1nnc2c(C(N)=O)ncn2c1=O` the T/C (dose: 50.0 mg/kg/injection, schedule: Q01DX005 (ip), vehicle: saline with Tween-80) was 145 % of control, the T/C (dose: 50.0 mg/kg/injection, schedule: Q01DX005 (ip), vehicle: saline) was 130 [5 of 6 alive] and 146 % of control and the survivor count (dose: 400.0 mg/kg/injection, schedule: Q01DX005 (ip), vehicle: saline with Tween-80) was 3 of 6. The survivor count (dose: 400.0 mg/kg/injection, schedule: Q01DX005 (ip), vehicle: saline) was 2 of 10.

In the case of `O=C(O)C(c1ccccc1)N1C(=O)C(Cl)=C(Cl)C1=O` (configuration not stated), the survivor count [1] is reported as 1 of 6 and the survivor count [2] is reported as 0 of 6.

In the case of `OCCN(CCO)CC(O)COc1cccc2ccccc12` (configuration not stated), the survivor count (dose: 400.0 mg/kg/injection, schedule: Q01DX009 (ip), vehicle: saline) is reported as 0 of 6.

In the case of `CCCCCCCCOP(=O)(N1CC1C)N1CC1C` (configuration not stated), the T/C (dose: 25.0 mg/kg/injection, schedule: Q01DX009 (ip), vehicle: saline with Tween-80) is reported as 131 % of control, the T/C (dose: 33.0 mg/kg/injection, schedule: Q01DX009 (ip), vehicle: saline with Tween-80) is reported as 137 % of control and the T/C (dose: 75.0 mg/kg/injection, schedule: Q01DX009 (ip), vehicle: saline with Tween-80) is reported as 137 % of control. The survivor count (dose: 100.0 mg/kg/injection, schedule: Q04DX003 (ip), vehicle: saline) was 3 of 6.

For `CN1CCCC(Cl)(C(=O)c2ccccc2)C1` (configuration not stated), the survivor count (dose: 400.0 mg/kg/injection, schedule: Q04DX003 (ip), vehicle: saline) was 1 of 6.

For `CCOc1ccc2nc3ccccc3c(N)c2c1`, the T/C (dose: 15.0 mg/kg/injection, schedule: Q01DX005 (ip), vehicle: saline with Tween-80) was 129 % of control, the T/C (dose: 30.0 mg/kg/injection, schedule: Q01DX005 (ip), vehicle: saline with Tween-80) was 131 % of control and the survivor count (dose: 60.0 mg/kg/injection, schedule: Q01DX005 (ip), vehicle: saline with Tween-80) was 3 of 6 and 4 of 6. The survivor count [1] was 0 of 6 and the survivor count [2] was 0 of 6.

For `COc1cc2c(cc1OC)-c1c(C)c3ccc(OC)c(OC)c3c[n+]1CC2`, the survivor count (dose: 50.0 mg/kg/injection, schedule: Q04DX003 (ip), vehicle: distilled water + Tween-80) was 0 of 6, the survivor count (dose: 100.0 mg/kg/injection, schedule: Q04DX003 (ip), vehicle: distilled water + Tween-80) was 0 of 6 and the survivor count (dose: 200.0 mg/kg/injection, schedule: Q04DX003 (ip), vehicle: distilled water + Tween-80) was 0 of 6. For the same compound, the survivor count (dose: 400.0 mg/kg/injection, schedule: Q04DX003 (ip), vehicle: distilled water + Tween-80) was 0 of 6.

With `N#CC[N+]1(Cc2ccccn2)CCCC1` the survivor count (dose: 240.0 mg/kg/injection, schedule: Q01DX005 (ip), vehicle: saline) was 1 of 6.

`CCCCNC(=O)C1CC2c3cccc4c3c(cn4C)CC2N(C)C1` (configuration not stated) was tested, and the survivor count (dose: 100.0 mg/kg/injection, schedule: Q01DX001 (ip), vehicle: saline) was 3 of 6.

With `CC1(C)CC(C#N)CC(C)(C)N1O` the survivor count (dose: 200.0 mg/kg/injection, schedule: Q04DX003 (ip), vehicle: Klucel (hydroxypropylcellulose) (HPC)) was 0 of 6 and the survivor count (dose: 400.0 mg/kg/injection, schedule: Q04DX003 (ip), vehicle: Klucel (hydroxypropylcellulose) (HPC)) was 0 of 6.

`CCOC(=O)/C(=C(/[S-])SC)[n+]1ccc(C)cc1` was tested, and the survivor count [3] was 2 of 6.

In the case of `Cc1cc(NCCCCCCCCNc2cc(C)nc3cc([N+](=O)[O-])ccc23)c2ccc([N+](=O)[O-])cc2n1`, the survivor count (dose: 50.0 mg/kg/injection, schedule: Q01DX009 (ip), vehicle: water) is reported as 5 of 6, the survivor count (dose: 100.0 mg/kg/injection, schedule: Q01DX009 (ip), vehicle: water) is reported as 6 of 6 and the survivor count (dose: 200.0 mg/kg/injection, schedule: Q01DX009 (ip), vehicle: water) is reported as 6 of 6.

`Oc1c(Cl)c(Cl)c(O)c2c1CCCC2` was tested, and the survivor count (dose: 100.0 mg/kg/injection, schedule: Q04DX002 (ip), vehicle: saline with Tween-80) was 0 of 6, the survivor count (dose: 200.0 mg/kg/injection, schedule: Q04DX002 (ip), vehicle: saline with Tween-80) was 0 of 6 and the survivor count [3] was 0 of 6.

In the case of `N#CCc1ccc(N(CCO)CCO)cc1`, the survivor count (dose: 100.0 mg/kg/injection, schedule: Q01DX005 (ip), vehicle: saline with Tween-80) is reported as 5 of 5 and the survivor count (dose: 200.0 mg/kg/injection, schedule: Q01DX005 (ip), vehicle: saline with Tween-80) is reported as 0 of 5.

In the case of `c1ccc2c(c1)ccc1c[n+]3ccccc3cc12`, the survivor count (dose: 5.0 mg/kg/injection, schedule: Q04DX003 (ip), vehicle: other) is reported as 3 of 6, the survivor count (dose: 10.0 mg/kg/injection, schedule: Q04DX003 (ip), vehicle: other) is reported as 0 of 6 and the survivor count (dose: 20.0 mg/kg/injection, schedule: Q04DX003 (ip), vehicle: other) is reported as 0 of 6.
